Data: publication PMC11291904
No constants are given. Whether binding was seen depends on the method and setting. Binding seen in cells or lysates may run through a third protein. Some binding calls cover weakened binding; strength is not graded here. For some assays here: Where a sequence is shown, tags or fusion partners need not be part of it.

The chains behind the UniProt entries cited, without tags or fusion partners.
UniProt O94874: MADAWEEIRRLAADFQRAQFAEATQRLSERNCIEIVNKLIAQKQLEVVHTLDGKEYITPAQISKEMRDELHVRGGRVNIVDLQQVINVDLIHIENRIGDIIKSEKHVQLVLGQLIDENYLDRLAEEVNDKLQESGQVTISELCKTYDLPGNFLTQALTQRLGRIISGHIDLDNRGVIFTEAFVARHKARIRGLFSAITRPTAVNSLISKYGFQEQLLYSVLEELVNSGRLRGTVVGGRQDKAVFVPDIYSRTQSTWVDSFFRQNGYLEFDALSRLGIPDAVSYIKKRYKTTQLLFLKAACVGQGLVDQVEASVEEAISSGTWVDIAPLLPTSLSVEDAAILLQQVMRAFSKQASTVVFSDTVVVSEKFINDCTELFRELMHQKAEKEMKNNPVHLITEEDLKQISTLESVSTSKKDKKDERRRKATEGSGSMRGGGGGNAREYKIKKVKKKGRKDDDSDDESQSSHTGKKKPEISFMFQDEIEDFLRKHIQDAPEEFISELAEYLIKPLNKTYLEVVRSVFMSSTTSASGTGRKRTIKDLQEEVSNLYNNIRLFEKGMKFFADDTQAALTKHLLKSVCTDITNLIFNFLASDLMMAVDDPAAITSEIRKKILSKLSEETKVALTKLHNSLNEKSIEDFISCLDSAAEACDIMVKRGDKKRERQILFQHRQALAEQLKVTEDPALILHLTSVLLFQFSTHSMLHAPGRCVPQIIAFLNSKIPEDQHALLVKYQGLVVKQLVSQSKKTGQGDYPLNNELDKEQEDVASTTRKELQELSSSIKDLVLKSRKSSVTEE
UniProt P52732: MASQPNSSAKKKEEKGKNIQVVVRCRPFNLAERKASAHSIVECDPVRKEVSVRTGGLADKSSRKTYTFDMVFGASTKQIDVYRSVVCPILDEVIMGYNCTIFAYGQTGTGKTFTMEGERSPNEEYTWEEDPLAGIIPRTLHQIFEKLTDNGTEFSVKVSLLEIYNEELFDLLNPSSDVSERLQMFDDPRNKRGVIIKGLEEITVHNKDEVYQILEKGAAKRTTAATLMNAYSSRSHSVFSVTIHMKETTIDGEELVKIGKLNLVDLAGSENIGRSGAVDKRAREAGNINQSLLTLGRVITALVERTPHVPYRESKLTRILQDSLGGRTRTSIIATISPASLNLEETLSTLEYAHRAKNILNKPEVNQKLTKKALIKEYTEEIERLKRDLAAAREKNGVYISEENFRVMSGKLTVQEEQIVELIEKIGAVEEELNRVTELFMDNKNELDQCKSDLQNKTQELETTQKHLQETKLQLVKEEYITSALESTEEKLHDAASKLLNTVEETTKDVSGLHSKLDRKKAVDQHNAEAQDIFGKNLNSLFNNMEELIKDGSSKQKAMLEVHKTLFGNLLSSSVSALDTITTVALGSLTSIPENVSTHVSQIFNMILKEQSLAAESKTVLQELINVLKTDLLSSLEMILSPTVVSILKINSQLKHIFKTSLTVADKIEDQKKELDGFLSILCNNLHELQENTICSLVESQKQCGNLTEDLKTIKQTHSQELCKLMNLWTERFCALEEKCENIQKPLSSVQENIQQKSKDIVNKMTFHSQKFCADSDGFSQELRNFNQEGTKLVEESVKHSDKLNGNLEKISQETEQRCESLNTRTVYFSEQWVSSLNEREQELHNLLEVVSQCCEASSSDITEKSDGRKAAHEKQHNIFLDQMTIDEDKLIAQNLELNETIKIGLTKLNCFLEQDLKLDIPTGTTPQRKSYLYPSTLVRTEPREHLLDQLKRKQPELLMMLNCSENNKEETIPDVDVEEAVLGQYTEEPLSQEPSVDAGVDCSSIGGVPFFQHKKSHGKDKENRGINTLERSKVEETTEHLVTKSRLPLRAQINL

Legend:
[1] = target: T1, HA-DDRGK1 (UniProt Q96HY6); assay: co-IP; Flag-Eg5, HA-UFL1 or HA-DDRGK1 expressed in HEK293T cells, respectively; lysates precipitated with anti-Flag or anti-HA beads; western blot
T1 sequence: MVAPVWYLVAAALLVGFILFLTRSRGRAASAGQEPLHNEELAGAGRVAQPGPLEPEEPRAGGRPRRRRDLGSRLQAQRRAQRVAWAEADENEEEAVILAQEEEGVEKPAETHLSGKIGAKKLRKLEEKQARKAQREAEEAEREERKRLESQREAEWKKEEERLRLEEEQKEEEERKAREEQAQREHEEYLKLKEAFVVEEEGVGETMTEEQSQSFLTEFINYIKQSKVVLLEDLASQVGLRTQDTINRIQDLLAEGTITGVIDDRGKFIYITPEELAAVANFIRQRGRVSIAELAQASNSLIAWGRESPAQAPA

[2] = target: HA-UFL1 (UniProt O94874); assay: as above

binding [1]: binds
binding [2]: binds
Substance: Kinesin-5 (Eg5), endogenous (from UniProt P52732 1-1056)
